Results from article PMC11432330, “Novel Drug-like HsrA Inhibitors Exhibit Potent Narrow-Spectrum Antimicrobial Activities against Helicobacter pylori” (International Journal of Molecular Sciences, 2024).
The source gives many values for each of these; only a part stands here.

Test system: H. pylori 26695
Test: In vivo inhibition of HsrA: RNA-Seq transcriptomic analysis of exposed cells
Format: cell-based, Helicobacter pylori
Method: Bacterial growth from three blood agar plates of H. pylori ATCC 700392 (aka 26695) incubated for 48 h at 37 °C under microaerobic conditions was aseptically resuspended in BHI + FBS and adjusted to 10^7 CFU/mL. BHI broth cultures were incubated microaerobically at 37 °C for 24 h. […] At this time, bacterial growth was stopped by adding 1.5 mL ice-cold RNA stop solution (95% absolute ethanol, 5% acid-buffered phenol) and subsequently incubated on ice. Control samples were exposed to the same amount of DMSO instead of the inhibitor. Helicobacter cells from all samples were harvested by centrifugation (4000 rpm at 4 °C for 10 min), then the pellets were quickly frozen by immersion in liquid nitrogen and stored at −80 °C.
RNA-Seq analysis was performed by GENEWIZ (Azenta Life Sciences, Leipzig, Germany). Frozen cell pellets from two biological replicates of each treatment condition were properly submitted to GENEWIZ in dry ice. RNA-Seq libraries were prepared according to standard protocols via rRNA depletion, RNA fragmentation and random priming, reverse transcription, 5’-phosphorylation and dA-tailing of cDNAs, adaptor ligation, and PCR enrichment. Once the quality of each library was confirmed, they were sequenced on an Illumina NovaSeq 6000 (Illumina, San Diego, CA, USA) with 150-bp paired-ends. Raw sequence reads were filtered to remove possible adapter sequences and nucleotides with poor quality using Trimmomatic v.0.36 [105]. The trimmed reads were subsequently mapped to the H. pylori strain 26695 reference genome NC_000915.1 available on NCBI, by using the Bowtie2 aligner v.2.2.6 [106]. Unique gene hit counts were calculated by using featureCounts from the Subread package v.1.5.2. Only unique reads that fell within the gene regions were counted. Using DESeq2 [108], a comparison of the gene expression between the control and treated groups of samples was performed. The Wald test was used to generate p-values and log2 fold changes. Genes with an adjusted p-value < 0.05 and absolute log2 fold change >1 were considered as differentially expressed genes (DEGs) for each comparison. The RNA-Seq data generated in this study have been deposited in ArrayExpress with the accession number E-MTAB-14255.

NC(=NOC(=O)Nc1ccc(Cl)cc1)c1csc([N+](=O)[O-])c1 [Ligand V, N′-{[(4-chloroanilino)carbonyl]}oxy-5-nitrothiophene-3-carboximidamide]
log2 Fold Change (gene HP0980, exposed to lethal concentrations vs control): 1.063 | log2 Fold Change (gene HP0982, exposed to lethal concentrations of V vs control): 0.983 | log2 Fold Change (gene HP0983, exposed to lethal concentrations vs control): 1.170 | log2 Fold Change (gene HP0985, exposed to lethal concentrations of V vs control): 0.484 | log2 Fold Change (gene HP0988, exposed to lethal concentrations vs control): -0.008 | log2 Fold Change (gene HP0994, exposed to lethal concentrations vs control): 0.127 | log2 Fold Change (gene HP0996, exposed to lethal concentrations of V vs control): 0.783 | log2 Fold Change (gene HP0998, exposed to lethal concentrations vs control): 0.035 | log2 Fold Change (gene HP1001, exposed to lethal concentration of V vs control): -0.930 | log2 Fold Change (gene HP1002, exposed to lethal concentrations vs control): 0.048 | log2 Fold Change (gene HP1005, exposed to lethal concentrations of V vs control): 0.858 | log2 Fold Change (gene HP1006, exposed to lethal concentration of V vs control): -1.067 | log2 Fold Change (gene HP1010, exposed to lethal concentrations vs control): 0.043 | log2 Fold Change (gene HP1011, exposed to lethal concentrations of V vs control): 0.489 | log2 Fold Change (gene HP1012, exposed to lethal concentrations vs control): 0.131 | log2 Fold Change (gene HP1015, exposed to lethal concentration of V vs control): -0.935 | log2 Fold Change (gene HP1016, exposed to lethal concentration of V vs control): -1.409 | log2 Fold Change (gene HP1017, exposed to lethal concentrations of V vs control): 0.976 | log2 Fold Change (gene HP1021, exposed to lethal concentrations vs control): -0.829 | log2 Fold Change (gene HP1024, exposed to lethal concentrations vs control): 1.415 | log2 Fold Change (gene HP1025, exposed to lethal concentrations vs control): 1.921 | log2 Fold Change (gene HP1026, exposed to lethal concentrations of V vs control): 0.946 | log2 Fold Change (gene HP1027, exposed to lethal concentrations of V vs control): 0.742 | log2 Fold Change (gene HP1028, exposed to lethal concentrations vs control): 1.121 | log2 Fold Change (gene HP1029, exposed to lethal concentration of V vs control): -0.912 | log2 Fold Change (gene HP1034, exposed to lethal concentration of V vs control): -1.139 | log2 Fold Change (gene HP1037, exposed to lethal concentrations of V vs control): 0.949 | log2 Fold Change (gene HP1038, exposed to lethal concentrations of V vs control): 0.847 | log2 Fold Change (gene HP1039, exposed to lethal concentration of V vs control): -1.464 | log2 Fold Change (gene HP1043, exposed to lethal concentrations of V vs control): 0.497 | log2 Fold Change (gene HP1044, exposed to lethal concentrations vs control): 1.898 | log2 Fold Change (gene HP1045, exposed to lethal concentrations vs control): 1.636 | log2 Fold Change (gene HP1049, exposed to lethal concentrations of V vs control): 0.786 | log2 Fold Change (gene HP1050, exposed to lethal concentrations vs control): 1.086 | log2 Fold Change (gene HP1051, exposed to lethal concentrations vs control): -0.081 | log2 Fold Change (gene HP1054, exposed to lethal concentrations vs control): -0.047 | log2 Fold Change (gene HP1055, exposed to lethal concentrations of V vs control): 0.866 | log2 Fold Change (gene HP1056, exposed to lethal concentrations of V vs control): 0.674 | log2 Fold Change (gene HP1060, exposed to lethal concentrations of V vs control): 0.850 | log2 Fold Change (gene HP1061, exposed to lethal concentrations vs control): -0.067 | log2 Fold Change (gene HP1064, exposed to lethal concentration of V vs control): -3.063 | log2 Fold Change (gene HP1065, exposed to lethal concentration of V vs control): -1.866 | log2 Fold Change (gene HP1066, exposed to lethal concentrations vs control): 1.053 | log2 Fold Change (gene HP1069, exposed to lethal concentrations vs control): 1.913 | log2 Fold Change (gene HP1070, exposed to lethal concentrations vs control): 1.174 | log2 Fold Change (gene HP1072, exposed to lethal concentration of V vs control): -1.096 | log2 Fold Change (gene HP1073, exposed to lethal concentration of V vs control): -1.360 | log2 Fold Change (gene HP1074, exposed to lethal concentration of V vs control): -1.064 | log2 Fold Change (gene HP1076, exposed to lethal concentration of V vs control): -2.055 | log2 Fold Change (gene HP1079, exposed to lethal concentrations vs control): -0.624 | log2 Fold Change (gene HP1082, exposed to lethal concentrations vs control): -0.648 | log2 Fold Change (gene HP1086, exposed to lethal concentrations vs control): 1.049 | log2 Fold Change (gene HP1089, exposed to lethal concentrations vs control): -0.050 | log2 Fold Change (gene HP1092, exposed to lethal concentration of V vs control): -0.875 | log2 Fold Change (gene HP1097, exposed to lethal concentrations of V vs control): 0.502 | log2 Fold Change (gene HP1099, exposed to lethal concentrations vs control): 1.898 | log2 Fold Change (gene HP1100, exposed to lethal concentrations vs control): 2.027 | log2 Fold Change (gene HP1101, exposed to lethal concentrations vs control): 1.496 | log2 Fold Change (gene HP1104, exposed to lethal concentrations vs control): 1.081 | log2 Fold Change (gene HP1105, exposed to lethal concentrations of V vs control): 0.551 | log2 Fold Change (gene HP1107, exposed to lethal concentrations of V vs control): 0.800 | log2 Fold Change (gene HP1111, exposed to lethal concentrations of V vs control): 0.677 | log2 Fold Change (gene HP1114, exposed to lethal concentrations vs control): 1.030 | log2 Fold Change (gene HP1116, exposed to lethal concentrations vs control): 2.599 | log2 Fold Change (gene HP1117, exposed to lethal concentrations vs control): -0.127 | log2 Fold Change (gene HP1118, exposed to lethal concentrations of V vs control): 0.908 | log2 Fold Change (gene HP1122a, exposed to lethal concentration of V vs control): -1.391 | log2 Fold Change (gene HP1123, exposed to lethal concentration of V vs control): -1.061 | log2 Fold Change (gene HP1124, exposed to lethal concentrations vs control): -0.120 | log2 Fold Change (gene HP1129, exposed to lethal concentrations vs control): 0.018 | log2 Fold Change (gene HP1130, exposed to lethal concentrations vs control): -0.120 | log2 Fold Change (gene HP1133, exposed to lethal concentrations vs control): -0.046 | log2 Fold Change (gene HP1134, exposed to lethal concentrations vs control): -0.124 | log2 Fold Change (gene HP1135, exposed to lethal concentration of V vs control): -1.160 | log2 Fold Change (gene HP1136, exposed to lethal concentration of V vs control): -1.023 | log2 Fold Change (gene HP1137, exposed to lethal concentration of V vs control): -1.280 | log2 Fold Change (gene HP1138, exposed to lethal concentrations vs control): -0.008 | log2 Fold Change (gene HP1143, exposed to lethal concentrations vs control): 1.282 | log2 Fold Change (gene HP1150, exposed to lethal concentration of V vs control): -1.699 | log2 Fold Change (gene HP1152, exposed to lethal concentrations of V vs control): 0.544 | log2 Fold Change (gene HP1156, exposed to lethal concentrations of V vs control): 0.792 | log2 Fold Change (gene HP1160, exposed to lethal concentration of V vs control): -1.357 | log2 Fold Change (gene HP1161, exposed to lethal concentration of V vs control): -0.885 | log2 Fold Change (gene HP1162, exposed to lethal concentrations of V vs control): 0.885 | log2 Fold Change (gene HP1163, exposed to lethal concentrations vs control): 0.00232 | log2 Fold Change (gene HP1167, exposed to lethal concentrations vs control): 3.244 | log2 Fold Change (gene HP1168, exposed to lethal concentrations vs control): 1.208 | log2 Fold Change (gene HP1169, exposed to lethal concentrations vs control): -0.099 | log2 Fold Change (gene HP1170, exposed to lethal concentrations vs control): 0.075 | log2 Fold Change (gene HP1172, exposed to lethal concentrations vs control): -0.779 | log2 Fold Change (gene HP1173, exposed to lethal concentration of V vs control): -1.612 | log2 Fold Change (gene HP1174, exposed to lethal concentrations vs control): 2.040 | log2 Fold Change (gene HP1175, exposed to lethal concentrations vs control): -0.059 | log2 Fold Change (gene HP1177, exposed to lethal concentrations vs control): -0.050 | log2 Fold Change (gene HP1178, exposed to lethal concentrations vs control): 1.251 | log2 Fold Change (gene HP1179, exposed to lethal concentrations of V vs control): 0.862 | log2 Fold Change (gene HP1180, exposed to lethal concentrations vs control): 1.264 | log2 Fold Change (gene HP1182, exposed to lethal concentrations vs control): -0.090 | log2 Fold Change (gene HP1185, exposed to lethal concentrations vs control): -0.823 | log2 Fold Change (gene HP1186, exposed to lethal concentrations vs control): 1.025 | log2 Fold Change (gene HP1187, exposed to lethal concentrations vs control): -0.125 | log2 Fold Change (gene HP1189, exposed to lethal concentrations of V vs control): 0.643 | log2 Fold Change (gene HP1192, exposed to lethal concentrations of V vs control): 0.493 | log2 Fold Change (gene HP1198, exposed to lethal concentrations vs control): 1.009 | log2 Fold Change (gene HP1198a, exposed to lethal concentration of V vs control): -1.810 | log2 Fold Change (gene HP1206, exposed to lethal concentrations of V vs control): 0.561 | log2 Fold Change (gene HP1207, exposed to lethal concentrations vs control): 1.215 | log2 Fold Change (gene HP1208, exposed to lethal concentrations vs control): 1.199 | log2 Fold Change (gene HP1210, exposed to lethal concentrations vs control): 1.562 | log2 Fold Change (gene HP1212, exposed to lethal concentrations vs control): 0.011 | log2 Fold Change (gene HP1218a, exposed to lethal concentrations vs control): 2.569 | log2 Fold Change (gene HP1220, exposed to lethal concentrations of V vs control): 0.577 | log2 Fold Change (gene HP1223, exposed to lethal concentrations vs control): -0.862 | log2 Fold Change (gene HP1227, exposed to lethal concentration of V vs control): -1.052 | log2 Fold Change (gene HP1228, exposed to lethal concentration of V vs control): -0.931 | log2 Fold Change (gene HP1231, exposed to lethal concentration of V vs control): -1.565 | log2 Fold Change (gene HP1233, exposed to lethal concentrations vs control): 1.163 | log2 Fold Change (gene HP1237, exposed to lethal concentrations of V vs control): 0.945 | log2 Fold Change (gene HP1242, exposed to lethal concentrations vs control): 0.054
